Assay results as given in paper PMC5996148.
Several values for one entry are separate records, joined by “and”; a condition that tells them apart may be missing. Equal values may be shown once. Some of the results follow. For some assays here: The exact form of the protein is not confirmed.

Tests used:
Assay in all cases: protein microarray (ProtoArray v5.0), streptavidin-Alexa Fluor 647
Details in all cases: 3'-biotin; 20 mM Tris (pH 7.5), 5 mM MgCl2, 100 mM KCl, 0.1% Tween-20, A/T-rich and random oligonucleotide blockers; temperature not stated; high values mean tight binding
[1] = test system: MITF (human)
[2] = test system: MKKS (human)
[3] = test system: MKNK2 (human)
[4] = test system: MKS1 (human)
[5] = test system: MLC1 (human)
[6] = test system: MLX (human)
[7] = test system: MMP12 (human)
[8] = test system: MMP19 (human)
[9] = test system: MNAT1 (human)
[10] = target: T1, MOBKL1A (UniProt Q7L9L4)
T1 sequence: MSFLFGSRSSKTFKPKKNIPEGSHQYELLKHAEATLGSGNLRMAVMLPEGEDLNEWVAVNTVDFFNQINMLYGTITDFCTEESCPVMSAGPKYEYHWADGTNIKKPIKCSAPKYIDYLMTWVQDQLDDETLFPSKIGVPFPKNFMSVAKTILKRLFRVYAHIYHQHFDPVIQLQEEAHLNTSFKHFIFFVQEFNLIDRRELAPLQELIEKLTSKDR

[11] = test system: MOGAT3 (human)
[12] = test system: MORF4 family-associated protein 1-like 1 (human)
[13] = test system: MORN2 (human)
[14] = test system: MPHOSPH6 (human)
[15] = test system: MPI (human)
[16] = test system: MPP3 (human)
[17] = test system: MPPED2 (human)
[18] = test system: MPZL2 (human)
[19] = test system: MR1 (human)
[20] = test system: MRAP (human)

In the case of “GGGAGGCTGAGGCAGG [G4-1 biotinylated (PQS2)]”, the binding signal [1] is reported as -0.33 z-score, the binding signal [2] is reported as -0.287 z-score and the binding signal [3] is reported as -0.324 z-score. The binding signal [4] was -0.294 z-score, the binding signal [5] was -0.336 z-score and the binding signal [6] was -0.368 z-score and -0.348 z-score. For the same sequence, the binding signal [7] was -0.351 z-score, the binding signal [8] was -0.285 z-score and the binding signal [9] was -0.264 z-score. The binding signal [10] was -0.334 z-score, the binding signal [11] was -0.361 z-score and the binding signal [12] was -0.333 z-score. It also gave a binding signal [13] of -0.291 z-score, a binding signal [14] of -0.324 z-score and a binding signal [15] of -0.358 z-score. It also gave a binding signal [16] of -0.346 z-score, a binding signal [17] of -0.297 z-score and a binding signal [18] of -0.279 z-score. It also gave a binding signal [19] of -0.329 z-score and a binding signal [20] of -0.325 z-score.
